Read-outs that look alike come from different tables or passages of the source. These are yes or no findings as the source states them, for the method shown. Binding seen in cells or lysates may run through a third protein. Some binding calls cover weakened binding; strength is not graded here. Each block holds one molecule with its values, some of them ahead of it.
Assays:
Experiment in all cases: co-IP
[1] = target: T1, Expanded residues 1-468 (Ex^1-468) (Drosophila) (UniProt Q07436)
T1 sequence: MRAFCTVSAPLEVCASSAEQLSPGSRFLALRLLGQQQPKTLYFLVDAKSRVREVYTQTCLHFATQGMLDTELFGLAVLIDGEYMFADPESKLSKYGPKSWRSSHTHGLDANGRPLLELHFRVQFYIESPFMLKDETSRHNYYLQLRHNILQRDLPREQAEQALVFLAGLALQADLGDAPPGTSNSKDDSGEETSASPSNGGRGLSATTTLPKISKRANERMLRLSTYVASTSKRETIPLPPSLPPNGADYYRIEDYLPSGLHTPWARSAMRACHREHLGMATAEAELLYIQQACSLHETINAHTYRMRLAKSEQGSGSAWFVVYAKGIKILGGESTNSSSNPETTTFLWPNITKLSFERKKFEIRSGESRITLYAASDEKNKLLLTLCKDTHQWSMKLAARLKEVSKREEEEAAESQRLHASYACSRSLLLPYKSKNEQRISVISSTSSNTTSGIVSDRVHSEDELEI

By UniProt entry, the sequences of proteins in these tests, tags left out.
UniProt P23696: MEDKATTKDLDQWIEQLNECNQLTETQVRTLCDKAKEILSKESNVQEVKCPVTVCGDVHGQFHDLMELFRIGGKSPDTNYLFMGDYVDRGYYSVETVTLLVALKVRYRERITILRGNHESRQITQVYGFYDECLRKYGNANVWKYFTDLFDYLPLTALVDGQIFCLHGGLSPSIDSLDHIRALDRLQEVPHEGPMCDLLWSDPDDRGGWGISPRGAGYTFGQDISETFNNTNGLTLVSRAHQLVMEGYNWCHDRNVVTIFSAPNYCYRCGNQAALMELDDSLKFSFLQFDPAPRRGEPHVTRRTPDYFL

Kibra (Kib) (Drosophila) [2] = target: T2, Kibra (Kib) (Drosophila) (UniProt Q9VFG8)
T2 sequence: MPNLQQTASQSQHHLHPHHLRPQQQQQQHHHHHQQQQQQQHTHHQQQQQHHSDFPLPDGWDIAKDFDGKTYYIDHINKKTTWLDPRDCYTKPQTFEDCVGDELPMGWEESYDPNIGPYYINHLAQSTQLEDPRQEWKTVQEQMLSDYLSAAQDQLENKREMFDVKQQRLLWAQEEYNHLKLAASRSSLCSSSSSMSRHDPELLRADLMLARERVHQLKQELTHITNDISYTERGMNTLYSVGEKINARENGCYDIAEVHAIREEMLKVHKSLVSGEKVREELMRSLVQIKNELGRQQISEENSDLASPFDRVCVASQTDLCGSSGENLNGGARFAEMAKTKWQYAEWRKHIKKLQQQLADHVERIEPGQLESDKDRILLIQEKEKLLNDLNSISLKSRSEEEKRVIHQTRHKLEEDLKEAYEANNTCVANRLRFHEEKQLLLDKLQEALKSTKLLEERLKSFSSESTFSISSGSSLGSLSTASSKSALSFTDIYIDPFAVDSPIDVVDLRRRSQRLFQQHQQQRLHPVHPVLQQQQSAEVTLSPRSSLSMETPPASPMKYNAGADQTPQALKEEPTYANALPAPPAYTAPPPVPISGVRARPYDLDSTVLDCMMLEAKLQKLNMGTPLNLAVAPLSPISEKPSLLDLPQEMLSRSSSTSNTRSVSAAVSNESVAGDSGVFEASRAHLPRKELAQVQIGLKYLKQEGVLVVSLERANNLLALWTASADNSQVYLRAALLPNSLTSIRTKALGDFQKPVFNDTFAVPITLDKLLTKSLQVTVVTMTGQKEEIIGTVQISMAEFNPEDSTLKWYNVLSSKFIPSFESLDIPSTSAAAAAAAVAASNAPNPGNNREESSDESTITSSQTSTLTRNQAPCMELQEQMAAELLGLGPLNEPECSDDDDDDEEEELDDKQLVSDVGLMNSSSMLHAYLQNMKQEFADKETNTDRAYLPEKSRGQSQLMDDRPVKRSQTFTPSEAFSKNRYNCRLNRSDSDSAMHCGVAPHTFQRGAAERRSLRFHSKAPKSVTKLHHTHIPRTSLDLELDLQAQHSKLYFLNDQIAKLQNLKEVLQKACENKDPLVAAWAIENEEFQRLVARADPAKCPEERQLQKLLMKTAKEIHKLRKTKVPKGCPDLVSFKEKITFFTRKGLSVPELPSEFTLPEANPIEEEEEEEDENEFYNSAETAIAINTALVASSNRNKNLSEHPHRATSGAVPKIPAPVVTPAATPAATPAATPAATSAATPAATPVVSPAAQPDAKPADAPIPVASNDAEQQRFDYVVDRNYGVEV

[3] = target: T3, Merlin (Mer) (Drosophila) (UniProt Q24564)
T3 sequence: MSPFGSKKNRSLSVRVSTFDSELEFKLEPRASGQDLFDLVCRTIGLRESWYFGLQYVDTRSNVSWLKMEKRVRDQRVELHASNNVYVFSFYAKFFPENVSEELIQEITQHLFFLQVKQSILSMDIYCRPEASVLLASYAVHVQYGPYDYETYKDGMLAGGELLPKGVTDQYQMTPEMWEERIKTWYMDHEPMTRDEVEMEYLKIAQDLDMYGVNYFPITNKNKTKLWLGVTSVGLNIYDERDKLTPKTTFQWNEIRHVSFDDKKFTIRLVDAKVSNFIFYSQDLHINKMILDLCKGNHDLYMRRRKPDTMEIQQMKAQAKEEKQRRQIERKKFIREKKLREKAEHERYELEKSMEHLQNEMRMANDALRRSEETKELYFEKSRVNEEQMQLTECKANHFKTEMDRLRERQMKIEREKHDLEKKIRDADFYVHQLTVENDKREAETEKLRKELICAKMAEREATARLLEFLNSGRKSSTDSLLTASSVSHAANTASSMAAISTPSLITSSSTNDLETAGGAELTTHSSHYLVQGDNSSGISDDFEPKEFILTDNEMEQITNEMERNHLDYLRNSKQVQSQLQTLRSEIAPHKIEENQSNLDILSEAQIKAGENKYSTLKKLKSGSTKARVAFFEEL

Kibra (Kib) (Drosophila) [4] = target: T2, Kibra (Kib) (Drosophila); remark: listed apart in the source
Twins (Tws) (Drosophila) = target: T4, Twins (Tws) (Drosophila) (UniProt P36872)
T4 sequence: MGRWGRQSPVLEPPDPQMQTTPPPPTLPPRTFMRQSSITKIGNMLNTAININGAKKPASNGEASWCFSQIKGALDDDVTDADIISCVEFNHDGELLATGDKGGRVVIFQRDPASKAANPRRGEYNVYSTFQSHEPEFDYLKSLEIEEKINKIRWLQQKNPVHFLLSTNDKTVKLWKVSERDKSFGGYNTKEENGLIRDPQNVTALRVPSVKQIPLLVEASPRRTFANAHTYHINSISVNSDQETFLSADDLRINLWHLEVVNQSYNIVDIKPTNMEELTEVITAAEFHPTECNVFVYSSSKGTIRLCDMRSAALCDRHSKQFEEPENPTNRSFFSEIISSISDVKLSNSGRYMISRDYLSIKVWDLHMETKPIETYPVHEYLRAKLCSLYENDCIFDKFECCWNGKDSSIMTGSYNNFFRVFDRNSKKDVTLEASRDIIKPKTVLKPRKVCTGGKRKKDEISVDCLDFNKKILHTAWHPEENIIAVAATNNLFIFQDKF

- binding [1]: binds
- binding (Kibra (Kib) (Drosophila) [2]): binds
- binding [3]: no binding
Molecule: Microtubule star (Mts), catalytic subunit of PP2A, wild type (from UniProt P23696 1-309) (enzyme)

- binding (Kibra (Kib) (Drosophila) [4]): no binding
B1: Twins (Tws) (protein, UniProt P36872 1-499)
chain: T4 sequence

- binding (Twins (Tws) (Drosophila)): binds
B2: Expanded (Ex), construct of Fig. 4K not stated (protein, UniProt Q07436 1-1427)
chain: MRAFCTVSAPLEVCASSAEQLSPGSRFLALRLLGQQQPKTLYFLVDAKSRVREVYTQTCLHFATQGMLDTELFGLAVLIDGEYMFADPESKLSKYGPKSWRSSHTHGLDANGRPLLELHFRVQFYIESPFMLKDETSRHNYYLQLRHNILQRDLPREQAEQALVFLAGLALQADLGDAPPGTSNSKDDSGEETSASPSNGGRGLSATTTLPKISKRANERMLRLSTYVASTSKRETIPLPPSLPPNGADYYRIEDYLPSGLHTPWARSAMRACHREHLGMATAEAELLYIQQACSLHETINAHTYRMRLAKSEQGSGSAWFVVYAKGIKILGGESTNSSSNPETTTFLWPNITKLSFERKKFEIRSGESRITLYAASDEKNKLLLTLCKDTHQWSMKLAARLKEVSKREEEEAAESQRLHASYACSRSLLLPYKSKNEQRISVISSTSSNTTSGIVSDRVHSEDELEIMINTPPAPLAAPSTESLALAHLLDRPSVSRQTSSVGQMSLKDLEEQLAALSVRPQDASSNGATIVTNSSVQRNSMGTTANDSSTATDSPSSQHNIGSQCSSTCSTVVVTSPVNGAGASSSGAPIPVHSTSSSLELGFSHTAQNSALSETSPDDFLSTSAREETESVSGASGVYTLAHGAPPTETSGVYTMHSSELTGQSSEIAESEKSSHYGMFQPQKLEETHVQHSDSVDGKKKEDFRPRSDSNVSTGSSFRGDGSDPTDNKHSLLSAEELTNLIVGRGTYPSRKTVSSSLHSDCDYVTLPLGDQGEEEVDQPPAPPPPYSARHEKTGLCGPPIAKPIPKPIAVVAPKPDSPPCSPPVPPAPIPAPPPAIRRRDPPPYSISSKPRPTSLISVSSSAHPAPSAAGSMSSLKSEEVTARFITTRPQISILKAHTSLIPDGAKPSYAAPHHCSSVASSNGSVCSHQLSQQSLHNSNYAGGSQASLHHHHVPSHHRHSGSAAIGIVPYGLHKSTASLHHQQSCVLLPVIKPRQFLAPPPPSLPRQPPPPPPPNHPHLASHLYEREMARKQLELYQQQLYSDVDYVIYPIQDPAVSQQEYLDAKQGSLLAAMAQAAPPPPHHPYLAMQVSPAIYRSTPYLPLTLSTHSRYASTQNLSDTYVQLPGPGYSPLYSPSMASLCSSYEPPPPPPLHPAALAAAAAAGAGSSSSSMFARSRSDDNILNSLDLLPKGKRLPPPPPPPYVNRRLKKPPMPAPSEKPPPIPSKPIPSRMSPIPPRKPPTLNPHHANSPLTKTSSGAQWAGERPRPDLGLGLGLNRGNNSILAQLQASMVAQSHAQAQAQALDIALLREKSKHLDLPLISALCNDRSLLKQTKVVINPKTGQEMPTSSAQPSGATTNGVANSSAGAGTLSKARKGSTVSHRHPQDKLPPLPVQQLAEANNYVIDPAVMMKQQQQQQQHNKTS

— publication doi:10.1101/2024.11.14.623552
